The list does not hold the whole screen: it is rich in T/C values a quarter to a half above the control, in often repeated tests (any T/C) and in doses without a T/C. Other doses and runs of a compound stand elsewhere. T/C is the treated group as % of the vehicle group. Some entries give survivors of the animals treated and no T/C: the source files T/C as zero there, which appears to mark a toxic dose or a test without result, not a measured value. Some survivor counts are full or nearly so, which does not show that the dose was tolerated: survival well below the control is almost never listed, so the zero probably covers shortened survival too. Survivors were counted at the toxicity check, usually on the fifth day, unless a day is given; later deaths do not show. Schedules are NCI's codes, taken here to give the interval after Q, in days (D) or hours (H), and the number of doses after X. Some structures stand for samples that the source files as different forms (salt, stereo form or complex); doses refer to the form tested. For survival time, this PubChem deposit counts one and a half times the control or more as active, and values a quarter to a half above the control carry no call in these data; other NCI protocols may use other cut-offs. Some schedule codes hold Z or #, which are not explained here. Some T/C values are followed by the survivors on the day toxicity was checked, most often the fifth; where none is given, no animal had died by that day. Some entries were tested several times; their values stand side by side, smallest first. Counts like (3×) count equal records among those shown.
Tested on: L1210 leukemia ip in BDF1 mice, survival T/C
Assay: NCI In Vivo Anticancer Drug Screen. Data for tumor model L1210 Leukemia (intraperitoneal) in B6D2F1 (BDF1) mice
Settings: T/C endpoint: mean survival time, higher T/C = longer survival

## Cc1c2ccncc2c(C)c2c1[nH]c1ccccc12
dose: 0.59 mg/kg/injection, schedule: Q03HX016 (ip), vehicle: other
  survivor count: 5 of 8
dose: 1.18 mg/kg/injection, schedule: Q03HX016 (ip), vehicle: other
  survivor count: 3 of 8
dose: 2.0 mg/kg/injection, schedule: Q01DX009 (ip), vehicle: Klucel (hydroxypropylcellulose) (HPC)
  T/C: 105 (2×), 117, 124, 125, 134 % of control
dose: 2.0 mg/kg/injection, schedule: Q01DX009 (ip), vehicle: saline with Tween-80, evaluated on day 30
  T/C: 93, 111 [4 of 6 alive], 115, 121 (2×), 125, 125 [5 of 6 alive], 126, 132, 134, 138 % of control
dose: 2.0 mg/kg/injection, schedule: Q01DX009 (ip), vehicle: saline with Tween-80, evaluated on day 60
  T/C: 127 and 132 % of control
dose: 2.0 mg/kg/injection, schedule: Q01DX009 (ip), vehicle: saline
  T/C: 132, 142, 145 % of control
dose: 2.0 mg/kg/injection, schedule: Q01DX009 (ip), vehicle: water
  T/C: 134 % of control
dose: 2.35 mg/kg/injection, schedule: Q03HX008 (ip), vehicle: other
  survivor count: 3 of 8
dose: 2.35 mg/kg/injection, schedule: Q03HX016 (ip), vehicle: other
  survivor count: 3 of 8
dose: 2.5 mg/kg/injection, schedule: Q04DX009 (ip), vehicle: Klucel (hydroxypropylcellulose) (HPC)
  T/C: 130 % of control
dose: 2.5 mg/kg/injection, schedule: Q#A X018 (ip), vehicle: other
  T/C: 129 % of control
dose: 3.12 mg/kg/injection, schedule: Q01DX009 (ip), vehicle: clinical formulation
  T/C: 125 % of control
dose: 4.0 mg/kg/injection, schedule: Q01DX005 (ip), vehicle: other
  T/C: 130 % of control
dose: 4.0 mg/kg/injection, schedule: Q01DX009 (ip), vehicle: Klucel (hydroxypropylcellulose) (HPC)
  T/C: 119, 121 (2×), 124, 126, 130 % of control
dose: 4.0 mg/kg/injection, schedule: Q01DX009 (ip), vehicle: other, evaluated on day 30
  T/C: 134 % of control
dose: 4.0 mg/kg/injection, schedule: Q01DX009 (ip), vehicle: other, evaluated on day 40
  T/C: 125 % of control
dose: 4.0 mg/kg/injection, schedule: Q01DX009 (ip), vehicle: saline with Tween-80, evaluated on day 30
  T/C: 115, 117, 121, 127, 131, 134, 138, 138 [5 of 6 alive], 139, 140, 142, 152 % of control
dose: 4.0 mg/kg/injection, schedule: Q01DX009 (ip), vehicle: saline with Tween-80, evaluated on day 38
  T/C: 120 % of control [5 of 6 alive]
dose: 4.0 mg/kg/injection, schedule: Q01DX009 (ip), vehicle: saline with Tween-80, evaluated on day 60
  T/C: 137 [9 of 10 alive] and 138 % of control
dose: 4.0 mg/kg/injection, schedule: Q01DX009 (ip), vehicle: saline, evaluated on day 23
  T/C: 143 % of control
dose: 4.0 mg/kg/injection, schedule: Q01DX009 (ip), vehicle: saline, evaluated on day 30
  T/C: 132 (2×), 140, 148 % of control
dose: 4.0 mg/kg/injection, schedule: Q01DX009 (ip), vehicle: water
  T/C: 134 and 135 % of control
dose: 4.0 mg/kg/injection, schedule: Q03HX008 (ip), vehicle: clinical formulation
  T/C: 129 % of control
dose: 4.0 mg/kg/injection, schedule: Q03HX016 (ip), vehicle: clinical formulation
  T/C: 146 % of control
dose: 4.0 mg/kg/injection, schedule: Q03HX024 (ip), vehicle: acid diluted with saline
  T/C: 134 % of control
dose: 4.68 mg/kg/injection, schedule: Q03HX016 (ip), vehicle: steroid suspending solution
  T/C: 146 % of control
dose: 4.69 mg/kg/injection, schedule: Q01DX009 (ip), vehicle: saline with Tween-80
  T/C: 139 % of control
dose: 4.69 mg/kg/injection, schedule: Q03HX016 (ip), vehicle: other
  survivor count: 3 of 8
dose: 5.0 mg/kg/injection, schedule: Q01DX009 (ip), vehicle: carboxymethylcellulose (CMC)
  T/C: 127 % of control
dose: 5.0 mg/kg/injection, schedule: Q03HX008 (ip), vehicle: acid diluted with saline
  T/C: 131 % of control
dose: 5.0 mg/kg/injection, schedule: Q04DX009 (ip), vehicle: Klucel (hydroxypropylcellulose) (HPC)
  T/C: 138 % of control [5 of 6 alive]
dose: 6.2 mg/kg/injection, schedule: Q01DX Z (ip), vehicle: saline
  T/C: 130 % of control
dose: 6.25 mg/kg/injection, schedule: Q01DX009 (ip), vehicle: citric acid
  T/C: 128 % of control
dose: 8.0 mg/kg/injection, schedule: Q01DX005 (ip), vehicle: carboxymethylcellulose (CMC)
  T/C: 135 % of control
dose: 8.0 mg/kg/injection, schedule: Q01DX005 (ip), vehicle: other
  T/C: 139 % of control
dose: 8.0 mg/kg/injection, schedule: Q01DX009 (ip), vehicle: Klucel (hydroxypropylcellulose) (HPC)
  T/C: 121, 132, 136, 141, 145, 150 % of control
dose: 8.0 mg/kg/injection, schedule: Q01DX009 (ip), vehicle: clinical formulation
  T/C: 138 % of control
dose: 8.0 mg/kg/injection, schedule: Q01DX009 (ip), vehicle: other, evaluated on day 23
  T/C: 152 % of control
dose: 8.0 mg/kg/injection, schedule: Q01DX009 (ip), vehicle: other, evaluated on day 30
  T/C: 144 and 146 % of control
dose: 8.0 mg/kg/injection, schedule: Q01DX009 (ip), vehicle: other, evaluated on day 40
  T/C: 142 % of control
dose: 8.0 mg/kg/injection, schedule: Q01DX009 (ip), vehicle: saline with Tween-80, evaluated on day 30
  T/C: 115, 123, 130, 143, 146 [5 of 6 alive], 149, 150, 155 (2×), 161, 168, 187 % of control [5 of 6 alive]
dose: 8.0 mg/kg/injection, schedule: Q01DX009 (ip), vehicle: saline with Tween-80, evaluated on day 38
  T/C: 91 % of control
dose: 8.0 mg/kg/injection, schedule: Q01DX009 (ip), vehicle: saline with Tween-80, evaluated on day 60
  T/C: 148, 153, 282 % of control
dose: 8.0 mg/kg/injection, schedule: Q01DX009 (ip), vehicle: saline, evaluated on day 23
  T/C: 154 % of control
dose: 8.0 mg/kg/injection, schedule: Q01DX009 (ip), vehicle: saline, evaluated on day 30
  T/C: 145, 161, 163 % of control
dose: 8.0 mg/kg/injection, schedule: Q01DX009 (ip), vehicle: water
  T/C: 138 and 142 % of control
dose: 8.0 mg/kg/injection, schedule: Q01DX009 (sc), vehicle: clinical formulation
  T/C: 131 % of control
dose: 8.0 mg/kg/injection, schedule: Q03HX024 (ip), vehicle: acid diluted with saline
  survivor count: 9 of 10
dose: 9.37 mg/kg/injection, schedule: Q03HX008 (ip), vehicle: other
  survivor count: 3 of 8
dose: 9.37 mg/kg/injection, schedule: Q03HX016 (ip), vehicle: other
  survivor count: 2 of 8
dose: 9.37 mg/kg/injection, schedule: Q04DX003 (ip), vehicle: other
  T/C: 134 % of control
dose: 9.37 mg/kg/injection, schedule: Q04DX003 (ip), vehicle: saline with Tween-80
  T/C: 126 % of control
dose: 10.0 mg/kg/injection, schedule: Q01DX009 (ip), vehicle: other, evaluated on day 30
  T/C: 145 % of control
dose: 10.0 mg/kg/injection, schedule: Q01DX009 (ip), vehicle: other, evaluated on day 60
  T/C: 147 % of control
dose: 10.0 mg/kg/injection, schedule: Q03HX008 (ip), vehicle: acid diluted with saline
  T/C: 138 % of control
dose: 10.0 mg/kg/injection, schedule: Q04DX009 (ip), vehicle: Klucel (hydroxypropylcellulose) (HPC)
  T/C: 143 % of control
dose: 12.5 mg/kg/injection, schedule: Q01DX Z (ip), vehicle: saline
  T/C: 135 % of control
dose: 12.5 mg/kg/injection, schedule: Q04DX003 (ip), vehicle: clinical formulation
  T/C: 136 % of control
dose: 15.0 mg/kg/injection, schedule: Q01DX009 (oral), vehicle: saline
  T/C: 137 % of control
dose: 16.0 mg/kg/injection, schedule: Q01DX005 (ip), vehicle: other
  T/C: 140 % of control
dose: 16.0 mg/kg/injection, schedule: Q01DX009 (ip), vehicle: Klucel (hydroxypropylcellulose) (HPC)
  T/C: 132, 142, 153, 156, 166, 180 % of control
dose: 16.0 mg/kg/injection, schedule: Q01DX009 (ip), vehicle: other, evaluated on day 23
  T/C: 202 % of control
dose: 16.0 mg/kg/injection, schedule: Q01DX009 (ip), vehicle: other, evaluated on day 30
  T/C: 190 and 191 % of control
dose: 16.0 mg/kg/injection, schedule: Q01DX009 (ip), vehicle: other, evaluated on day 40
  T/C: 154 % of control
dose: 16.0 mg/kg/injection, schedule: Q01DX009 (ip), vehicle: saline with Tween-80, evaluated on day 30
  T/C: 135, 136, 145, 152, 156, 161, 162 [5 of 6 alive], 167, 175, 188, 194, 229 % of control
dose: 16.0 mg/kg/injection, schedule: Q01DX009 (ip), vehicle: saline with Tween-80, evaluated on day 38
  T/C: 115 % of control
dose: 16.0 mg/kg/injection, schedule: Q01DX009 (ip), vehicle: saline with Tween-80, evaluated on day 60
  T/C: 181, 202, 261 % of control
dose: 16.0 mg/kg/injection, schedule: Q01DX009 (ip), vehicle: saline, evaluated on day 23
  T/C: 180 % of control
dose: 16.0 mg/kg/injection, schedule: Q01DX009 (ip), vehicle: saline, evaluated on day 30
  T/C: 119, 176, 234 % of control
dose: 16.0 mg/kg/injection, schedule: Q01DX009 (oral), vehicle: clinical formulation
  T/C: 141 % of control
dose: 16.0 mg/kg/injection, schedule: Q03HX008 (oral), vehicle: clinical formulation
  T/C: 143 % of control
dose: 16.0 mg/kg/injection, schedule: Q03HX016 (ip), vehicle: clinical formulation
  survivor count: 10 of 10
dose: 16.0 mg/kg/injection, schedule: Q03HX024 (ip), vehicle: acid diluted with saline
  survivor count: 4 of 10
dose: 16.0 mg/kg/injection, schedule: Q03HX024 (ip), vehicle: clinical formulation
  survivor count: 7 of 10
dose: 16.0 mg/kg/injection, schedule: Q04DX003 (ip), vehicle: Klucel (hydroxypropylcellulose) (HPC), evaluated on day 5
  T/C: 128 % of control
dose: 16.0 mg/kg/injection, schedule: Q04DX003 (ip), vehicle: Klucel (hydroxypropylcellulose) (HPC), evaluated on day 60
  T/C: 128 % of control
dose: 16.0 mg/kg/injection, schedule: Q04DX003 (ip), vehicle: clinical formulation
  T/C: 134 % of control
dose: 16.0 mg/kg/injection, schedule: Q## X003 (ip), vehicle: other
  T/C: 136 % of control
dose: 16.0 mg/kg/injection, schedule: Q## X009 (ip), vehicle: carboxymethylcellulose (CMC)
  T/C: 148 % of control
dose: 16.0 mg/kg/injection, schedule: Q## X024 (ip), vehicle: other
  T/C: 135 % of control
dose: 18.75 mg/kg/injection, schedule: Q01DX001 (ip), vehicle: other
  T/C: 113, 114, 120, 122 % of control
dose: 18.75 mg/kg/injection, schedule: Q01DX001 (ip), vehicle: steroid suspending solution
  T/C: 127 % of control
dose: 18.75 mg/kg/injection, schedule: Q03HX008 (ip), vehicle: other
  survivor count: 3 of 8
dose: 18.75 mg/kg/injection, schedule: Q03HX016 (ip), vehicle: other
  survivor count: 2 of 8
dose: 18.75 mg/kg/injection, schedule: Q04DX003 (ip), vehicle: clinical formulation
  T/C: 146 % of control
dose: 18.75 mg/kg/injection, schedule: Q04DX003 (ip), vehicle: lactic acid
  T/C: 144 % of control
